Binding screen against folded nucleic acids

Source: the ROBIN nucleic acid binder screens (doi:10.1002/anie.202211358).

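Compounds were printed on reactive glass slides in duplicate spots, a dye-labelled oligonucleotide was laid over them, and the fluorescence left after washing was read. For the PreQ1, TPP and SAM-II riboswitches the laboratory earlier reported (doi:10.1038/s41467-019-09493-3) 1 µM RNA, 2 h, and a rule that included a mean Z-score above 3 (spot signal-to-noise against the whole library), a score well above that on a control array, and duplicate spots agreeing (coefficient of variation under 100). The data file gives only the calls; its cut-offs may differ, and compounds hitting several targets are kept. These are primary screening calls, not affinities; a compound without a hit may have attached poorly or may still bind in solution.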
A compound is marked yes if it was called a hit and no if it was screened but was not.
This is an unselected part of the compounds tested.
A target missing from an entry has no call listed here.

Targets, with sequences 5′ to 3′:
T1: PreQ1 riboswitch RNA pseudoknot, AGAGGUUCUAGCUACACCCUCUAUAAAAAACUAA. From B. subtilis. Hit rate about 0.7% of about 24,000 compounds.
T2: TPP riboswitch RNA three-way junction, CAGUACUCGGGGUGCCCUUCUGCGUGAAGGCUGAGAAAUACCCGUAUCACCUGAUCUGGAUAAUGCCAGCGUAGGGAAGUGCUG. Hit rate about 0.7% of about 24,000 compounds.
T3: SAM-II riboswitch RNA pseudoknot, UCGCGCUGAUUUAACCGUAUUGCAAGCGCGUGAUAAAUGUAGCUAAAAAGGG. Hit rate about 1% of about 21,000 compounds.

{"compound": "CSc1ccc2c(c1)C(N1CCN(C)CC1)Cc1ccccc1S2.O=C(O)/C=C\\C(=O)O", "stereo": "centres undefined", "T1": "no", "T2": "no", "T3": "no"}
{"compound": "O=C1NC(=O)C(=Cc2csc3ccccc23)C(=O)N1", "T1": "no", "T2": "no", "T3": "no"}
{"compound": "OC1(CN2CCC3(C=Cc4ccccc43)CC2)CNCCOC1", "stereo": "centres undefined", "T1": "no", "T2": "no", "T3": "no"}
{"compound": "COc1cccc(S(=O)(=O)N2CCC3(CC2)NCCNC3=O)c1", "T1": "no", "T2": "no", "T3": "no"}
{"compound": "Cc1cc(C)n(-c2cc(Nc3ccc(C)c(C)c3)ncn2)n1", "T1": "no", "T2": "no", "T3": "no"}
{"compound": "COc1ccc(-c2ccccc2)cc1NC(=O)N1CCNC(=O)C1CCO", "stereo": "centres undefined", "T1": "no", "T2": "no", "T3": "no"}
{"compound": "CCCCOCCCN1CC(=O)C(c2nc3ccccc3s2)=C1N", "T1": "no", "T2": "no"}
{"compound": "OCC1(O)CCCN(Cc2nnc(-c3ccccc3)o2)CC1", "stereo": "centres undefined", "T1": "no", "T2": "no", "T3": "no"}
{"compound": "CCc1ccc(OCCN(C)C(=O)CC2=CCNCC2)cc1", "T1": "no", "T2": "no", "T3": "no"}
{"compound": "CC1=C(c2cccc(Br)c2)S(=O)(=O)N=C1Nc1ccccc1C", "T1": "no", "T2": "no"}
{"compound": "Cc1ccc(Nc2nc(-c3cccnc3)nc3ccccc23)cc1", "T1": "no", "T2": "no", "T3": "no"}
{"compound": "O=S(=O)(CCNCc1c[nH]nc1-c1ccc(F)cc1)N1CCCC1", "T1": "no", "T2": "no", "T3": "no"}
{"compound": "Cc1cc(NCc2ccccc2C)n2nc(-c3cccnc3)nc2n1", "T1": "no", "T2": "no"}
{"compound": "Cc1ccc2cc(-c3noc(C)n3)c(NCc3cc(F)cc(F)c3)nc2c1", "T1": "no", "T2": "no"}
{"compound": "CCOC(=O)c1cnn(-c2cc(C)nc3c(C)c(-c4cccc(C)c4)nn23)c1N", "T1": "no", "T2": "no"}
{"compound": "Nc1nc2c(c(NCC(c3ccco3)N3CCCC3)n1)CCNCC2", "stereo": "centres undefined", "T1": "no", "T2": "no", "T3": "no"}
{"compound": "N#CCNC1CC(=O)N(c2ccc(Cl)cc2)C1=O", "stereo": "centres undefined", "T1": "no", "T2": "no", "T3": "no"}
{"compound": "CS(=O)(=O)CCc1nc(C(O)c2ccccc2)nn1-c1cccc(F)c1", "stereo": "centres undefined", "T1": "no", "T2": "no", "T3": "no"}
{"compound": "COc1ccc(-c2cc(NCc3ccccc3Cl)n3cnnc3n2)cc1", "T1": "no", "T2": "no"}
{"compound": "CC(C)=CCN1CC2(CCN(c3nccc(N)n3)CC2)CC1=O", "T1": "no", "T2": "no", "T3": "no"}
{"compound": "Cc1nc([N+](=O)[O-])cn1CC(=O)NCCCO", "T1": "no", "T2": "no", "T3": "no"}
{"compound": "COC(=O)CNC(c1ccccc1)c1cc(Br)ccc1NC(=O)OCc1ccccc1", "stereo": "centres undefined", "T1": "no", "T2": "no", "T3": "no"}
{"compound": "O=C1NC(c2cccnc2)(C2CCNCC2)C(=O)N1Cc1nccs1", "stereo": "centres undefined", "T1": "no", "T2": "no", "T3": "no"}
{"compound": "O=C(c1ccn2nnnc2c1)N1CCN(Cc2ncc[nH]2)CC(O)C1", "stereo": "centres undefined", "T1": "no", "T2": "no", "T3": "no"}
{"compound": "Cc1ccc(N(CC(=O)N2CC[C@H](O)C2)S(C)(=O)=O)cc1", "T1": "no", "T2": "no", "T3": "no"}
{"compound": "CCc1ccc(NC2=NS(=O)(=O)C(c3ccc(C)c(C)c3)=C2C)cc1", "T1": "no", "T2": "no"}
{"compound": "COC(=O)C(Cc1ccccc1)NC(=O)C(N)Cc1ccccc1", "stereo": "centres undefined", "T1": "no", "T2": "no", "T3": "no"}
{"compound": "Cc1cc2c(cc1N)n(C)c(=O)c(=O)n2C", "T1": "no", "T2": "no", "T3": "no"}
{"compound": "CCCCn1c(SCCO)nc2c(c1=O)C1(CCCC1)Cc1ccccc1-2", "T1": "no", "T2": "no"}
{"compound": "Cn1c(=O)n(C)c2cc(CNc3ccc(N4CCOCC4)cc3)ccc21", "T1": "no", "T2": "no"}
{"compound": "O=C(C=Cc1ccc(C=CC(=O)Nc2ccc(C3=NCCN3)cc2)cc1)Nc1ccc(C2=NCCN2)cc1", "T1": "no", "T2": "no", "T3": "no"}
{"compound": "O=C(CCC1CCN(C(=O)CC2COCCN2)CC1)NCc1ccc(F)cc1", "stereo": "centres undefined", "T1": "no", "T2": "no", "T3": "no"}
{"compound": "O=C(NCCCc1ccccn1)c1ccc(N2CC(O)C2)nc1", "T1": "no", "T2": "no", "T3": "no"}
{"compound": "Cc1nc2c3c(-c4ccccc4)c(-c4ccccc4)n(CCO)c3ncn2n1", "T1": "no", "T2": "no", "T3": "no"}
{"compound": "C1CCC(CNC2CCCC2)CC1.Cl", "T1": "no", "T2": "no", "T3": "no"}
{"compound": "Cc1ccc(CNc2ncccc2-c2nc(-c3ccccc3C)no2)cc1", "T1": "no", "T2": "no"}
{"compound": "Cc1cc(Nc2ccccc2C)c2cccc(C)c2n1", "T1": "no", "T2": "no", "T3": "no"}

Once more, the final 4:

{"compound": "Cc1nc2c3c(-c4ccccc4)c(-c4ccccc4)n(CCO)c3ncn2n1", "T1": "no", "T2": "no", "T3": "no"}
{"compound": "C1CCC(CNC2CCCC2)CC1.Cl", "T1": "no", "T2": "no", "T3": "no"}
{"compound": "Cc1ccc(CNc2ncccc2-c2nc(-c3ccccc3C)no2)cc1", "T1": "no", "T2": "no"}
{"compound": "Cc1cc(Nc2ccccc2C)c2cccc(C)c2n1", "T1": "no", "T2": "no", "T3": "no"}